Laboratory results reported in publication PMC3497071.
These are yes or no findings as the source states them, for the method shown. For part of these data: Binding seen in cells or lysates may run through a third protein. Some binding calls cover weakened binding; strength is not graded here. For part of these data: Where a sequence is shown, tags or fusion partners need not be part of it. Blank lines part the entries; values can stand above or below the substance they belong to.

Chains of the proteins cited; added tags and fusions are not shown.
UniProt P05429: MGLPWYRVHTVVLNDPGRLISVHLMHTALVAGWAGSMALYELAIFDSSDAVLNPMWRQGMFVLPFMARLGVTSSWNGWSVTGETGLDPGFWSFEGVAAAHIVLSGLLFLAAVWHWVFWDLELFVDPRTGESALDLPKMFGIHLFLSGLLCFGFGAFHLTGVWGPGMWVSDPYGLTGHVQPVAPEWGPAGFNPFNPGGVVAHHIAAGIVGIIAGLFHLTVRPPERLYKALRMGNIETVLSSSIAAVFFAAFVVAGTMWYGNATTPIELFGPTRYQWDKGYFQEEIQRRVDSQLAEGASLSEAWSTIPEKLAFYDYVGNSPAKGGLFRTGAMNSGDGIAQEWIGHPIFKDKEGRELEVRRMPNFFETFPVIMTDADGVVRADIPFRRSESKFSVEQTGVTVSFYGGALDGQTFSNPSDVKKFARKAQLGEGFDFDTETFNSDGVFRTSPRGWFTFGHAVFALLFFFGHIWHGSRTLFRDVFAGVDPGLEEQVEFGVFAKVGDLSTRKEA
UniProt P09190: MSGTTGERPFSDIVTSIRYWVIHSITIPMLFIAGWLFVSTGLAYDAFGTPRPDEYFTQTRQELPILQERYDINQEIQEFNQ
UniProt P14835: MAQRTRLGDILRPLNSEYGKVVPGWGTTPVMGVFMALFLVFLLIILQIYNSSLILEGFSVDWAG

Key:
[1] = biological target: T1, His-tagged Psb28 (Synechocystis sp. PCC 6803) (UniProt Q55356); assay: pull-down; His-tagged Psb28 isolated from thylakoid membranes as described in ref. 26; preparation on CN-PAGE/SDS-PAGE, Sypro Orange
T1 sequence: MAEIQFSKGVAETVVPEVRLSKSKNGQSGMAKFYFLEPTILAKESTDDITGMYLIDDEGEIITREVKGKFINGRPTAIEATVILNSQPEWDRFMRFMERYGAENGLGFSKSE

[2] = biological target: His-tagged CP47 (CP47 apopolypeptide with a C-terminal His6-tag) (Synechocystis sp. PCC 6803) (UniProt P05429); assay: co-purification, cyt b-559 found by reduced-minus-oxidized difference spectroscopy; isolated RC47-His (10 µg Chl a) in KPN buffer with 1 µM ferricyanide, dithionite added, 520-600 nm
[3] = biological target: His-tagged CP47 (CP47 apopolypeptide with a C-terminal His6-tag) (Synechocystis sp. PCC 6803) (UniProt P05429); assay: pull-down; RC47-His isolated by the His6-tag of CP47: Ni2+-affinity chromatography of detergent-solubilized thylakoid membranes of ΔCP43/CP47-His, then DEAE anion exchange (KPN buffer, 0.04% β-DM, MgSO4 gradient 5-200 mM); SDS-PAGE and immunoblots

binding [1]: binds
Substance: RC47 assembly complex (PSII core complex lacking CP43), untagged (from UniProt P05429 1-507; P16033 1-344; P09192 1-352; P09190 1-81; P09191 1-44; P14835 1-64; Q54697 1-38; Q55354 1-39; P72701 1-35; P74787 1-31; P72575 1-39; P73676 1-39)

binding [2]: binds
Substance: PsbE (from UniProt P09190 1-81)

binding [3]: binds
Substance: PsbH (from UniProt P14835 1-64)
